PubChem BioAssay AID1259405 | NCATS – 2018

Aim: 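Silenced genes that increase secreted GFP made by CHO cells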 (primary screen)
System: Chinese hamster CHO-K1 ovary cells with stable secreted eGFP expression
Knock-down reagent: single siRNA against mouse genes, 0.8 pmol siRNA per well (2 µl of 400 nM stock)
Time to read-out: 3 days
Measurement: 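Percent of the per-plate non-targeting control median for intracellular GFP per well by laser scanning cytometry and for cell viability by ATP luminescence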
Scale: GFP, % of control: higher = more GFP per well, higher productivity; viability (ATP), % of control: higher = more viable cells (more ATP)
Hit rule: 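Called active when intracellular GFP, relative to negative control, is at or above 120%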
The whole screen tested about 50,000 reagents; this is an unselected part. In the full data, about 4,000 (8%) got an active call. 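Mouse siRNA library applied to hamster cells; one well for each siRNA.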 A number with no mark means an inactive call. Reagents against one gene are numbered here.

{"Gene": "Or2ag20", "reagent": 1, "GFP, % of control": 28.8, "viability (ATP), % of control": 23.1}
{"Gene": "Or2ag20", "reagent": 2, "GFP, % of control": 75.8, "viability (ATP), % of control": 75.6}
{"Gene": "Or2ag20", "reagent": 3, "GFP, % of control": 89.6, "viability (ATP), % of control": 59}
{"Gene": "Syncrip", "reagent": 1, "GFP, % of control": 66.9, "viability (ATP), % of control": 70}
{"Gene": "Syncrip", "reagent": 2, "GFP, % of control": 86.2, "viability (ATP), % of control": 98.6}
{"Gene": "Eif1ad", "reagent": 1, "GFP, % of control": 92.2, "viability (ATP), % of control": 52.2}
{"Gene": "Eif1ad", "reagent": 2, "GFP, % of control": "167 (active)", "viability (ATP), % of control": 102}
{"Gene": "Eif1ad", "reagent": 3, "GFP, % of control": 100, "viability (ATP), % of control": 108}
{"Gene": "Mogat1", "reagent": 1, "GFP, % of control": 95.4, "viability (ATP), % of control": 83.3}
{"Gene": "Mogat1", "reagent": 2, "GFP, % of control": 95.5, "viability (ATP), % of control": 136}
{"Gene": "Mogat1", "reagent": 3, "GFP, % of control": 79.7, "viability (ATP), % of control": 97.5}
{"Gene": "Copz2", "reagent": 1, "GFP, % of control": 82, "viability (ATP), % of control": 61.1}
{"Gene": "Copz2", "reagent": 2, "GFP, % of control": 97.3, "viability (ATP), % of control": 74.8}
{"Gene": "Copz2", "reagent": 3, "GFP, % of control": 65.9, "viability (ATP), % of control": 66.8}
{"Gene": "Adam29", "reagent": 1, "GFP, % of control": 102, "viability (ATP), % of control": 92.3}
{"Gene": "Adam29", "reagent": 2, "GFP, % of control": 94.3, "viability (ATP), % of control": 52.7}
{"Gene": "Adam29", "reagent": 3, "GFP, % of control": 94.6, "viability (ATP), % of control": 82.9}
